For at least one compound, name, drawing or mass did not settle the structure.
Biological target: T1, αβγC100Y hENaC (Homo sapiens, UniProt P37088+P51168+P51170, C100Y)
T1 construct: expressed in transfected cells; host or cells: HEK-293
T1 sequence (P37088 1-669): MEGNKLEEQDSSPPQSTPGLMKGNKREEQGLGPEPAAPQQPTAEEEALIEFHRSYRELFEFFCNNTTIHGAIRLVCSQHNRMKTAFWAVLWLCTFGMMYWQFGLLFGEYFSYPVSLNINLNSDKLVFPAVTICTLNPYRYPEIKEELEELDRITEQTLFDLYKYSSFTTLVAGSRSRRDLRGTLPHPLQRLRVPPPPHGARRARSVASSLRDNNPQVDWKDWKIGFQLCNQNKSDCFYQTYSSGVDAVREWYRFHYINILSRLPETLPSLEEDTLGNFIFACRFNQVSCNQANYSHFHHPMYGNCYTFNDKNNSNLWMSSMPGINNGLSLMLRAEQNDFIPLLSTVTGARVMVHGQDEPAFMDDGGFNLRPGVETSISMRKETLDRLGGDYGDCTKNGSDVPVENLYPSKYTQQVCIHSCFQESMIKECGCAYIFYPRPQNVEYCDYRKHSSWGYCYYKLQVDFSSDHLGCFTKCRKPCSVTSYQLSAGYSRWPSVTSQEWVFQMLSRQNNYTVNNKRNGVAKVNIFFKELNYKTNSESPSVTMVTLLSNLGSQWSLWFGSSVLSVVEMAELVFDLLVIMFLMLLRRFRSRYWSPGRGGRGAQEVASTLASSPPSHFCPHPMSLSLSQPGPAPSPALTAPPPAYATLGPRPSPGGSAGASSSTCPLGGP
T1 sequence (P51168 1-640): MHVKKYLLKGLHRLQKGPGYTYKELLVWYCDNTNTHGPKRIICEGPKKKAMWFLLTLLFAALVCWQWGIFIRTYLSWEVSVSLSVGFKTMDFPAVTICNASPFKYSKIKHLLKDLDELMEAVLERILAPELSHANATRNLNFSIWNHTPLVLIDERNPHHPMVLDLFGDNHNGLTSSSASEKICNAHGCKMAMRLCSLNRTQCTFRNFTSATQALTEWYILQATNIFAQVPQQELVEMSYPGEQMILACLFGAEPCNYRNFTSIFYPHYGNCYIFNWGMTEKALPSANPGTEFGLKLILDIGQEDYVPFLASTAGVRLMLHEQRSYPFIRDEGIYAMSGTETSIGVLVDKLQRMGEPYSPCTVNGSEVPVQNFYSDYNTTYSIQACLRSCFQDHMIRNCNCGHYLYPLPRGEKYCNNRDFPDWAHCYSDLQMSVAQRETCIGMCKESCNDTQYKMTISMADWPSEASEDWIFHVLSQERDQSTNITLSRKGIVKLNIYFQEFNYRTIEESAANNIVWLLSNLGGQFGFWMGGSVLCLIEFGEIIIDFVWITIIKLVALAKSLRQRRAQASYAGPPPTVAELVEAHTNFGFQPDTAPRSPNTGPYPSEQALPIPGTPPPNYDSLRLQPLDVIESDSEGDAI
T1 sequence (P51170 1-649 C100Y): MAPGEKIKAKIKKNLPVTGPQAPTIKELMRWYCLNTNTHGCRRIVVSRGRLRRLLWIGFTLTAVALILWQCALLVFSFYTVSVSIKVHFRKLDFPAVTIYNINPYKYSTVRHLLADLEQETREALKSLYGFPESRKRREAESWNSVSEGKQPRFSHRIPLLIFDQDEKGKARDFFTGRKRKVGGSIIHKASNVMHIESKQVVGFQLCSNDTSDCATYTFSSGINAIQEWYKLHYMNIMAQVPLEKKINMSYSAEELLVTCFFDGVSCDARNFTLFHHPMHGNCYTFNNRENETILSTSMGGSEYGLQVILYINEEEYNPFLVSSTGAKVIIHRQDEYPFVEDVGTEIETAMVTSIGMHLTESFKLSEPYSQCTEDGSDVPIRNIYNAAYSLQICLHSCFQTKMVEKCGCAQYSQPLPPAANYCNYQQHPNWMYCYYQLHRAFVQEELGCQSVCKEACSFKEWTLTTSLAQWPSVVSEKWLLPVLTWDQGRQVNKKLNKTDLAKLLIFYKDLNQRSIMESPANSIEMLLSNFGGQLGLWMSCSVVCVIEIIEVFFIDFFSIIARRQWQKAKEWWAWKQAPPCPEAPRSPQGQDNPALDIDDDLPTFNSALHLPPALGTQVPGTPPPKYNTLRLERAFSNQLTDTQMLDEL
Test: Whole cell patch clamp, HEK-293 cells expressing mutant αβγC100Y-hENaC
Type: cell-based
Conditions: HEK-293, whole cell patch clamp; no-peptide current: loss-of-function

C[C@@H]1NC(=O)CNC(=O)[C@H](CCC(=O)O)NC(=O)[C@@H]2CCCN2C(=O)[C@H]([C@@H](C)O)NC(=O)[C@H](CCC(=O)O)NC(=O)[C@H](CCCNC(=N)N)NC(=O)[C@H](CCC(N)=O)NC(=O)CNC(=O)[C@@H](N)CSSC[C@@H](C(=O)O)NC(=O)[C@H](Cc2ccc(O)cc2)NC(=O)[C@H](Cc2c[nH]c3ccccc23)NC(=O)[C@@H]2CCCN2C(=O)[C@H](CCCCN)NC(=O)[C@H](C)NC(=O)[C@H](CCC(=O)O)NC1=O [AP301]
AP301 restored Na+ current: 307.9 ± 15.7 pA

From US20250222065A1, “CYCLIC POLYPEPTIDE FOR THE TREATMENT OF PHA TYPE 1B” (priority 2015, published 2025)
